# PMC10687119, “Quaternary Ammonium Salts of Cationic Lipopeptides with Lysine Residues — Synthesis, Antimicrobial, Hemolytic and Cytotoxic Activities” (Probiotics and Antimicrobial Proteins, 2023)
# Read-outs that look alike come from different tables or passages of the source.
# Legend:
# [1] = test system: K. pneumoniae ATCC 700603; type: cell-based, Klebsiella pneumoniae
# Description: (§1) The Acinetobacter baumannii ATCC BAA-1605, Enterococcus faecium ATCC 700221, Klebsiella aerogenes ATCC 13048, Klebsiella pneumoniae ATCC 700603, Pseudomonas aeruginosa ATCC 9027, Staphylococcus aureus ATCC 33591, Candida glabrata ATCC 15126 strains were acquired from the American Type Culture Collection (ATCC, Manassas, USA). All the strains were stored at −80 °C in Roti-Store cryo vials (Carl Roth GmbH, Germany) and before the tests were transferred into fresh Mueller–Hinton broth (MHB, Becton Dickinson, Poland) for bacteria or RPMI-1640 (Sigma-Aldrich, Germany) for fungi and incubated for 24 h at 37 °C. Then, the cultures were cultured on the Mueller–Hinton agar (BioMaxima, Poland) or Sabouraud dextrose agar (SDA, BioMaxima) plates, respectively, and incubated as just mentioned. For microbiological assays, a minimum of three to five well-isolated colonies of the same morphological type were carefully picked from the agar cultures. These colonies were transferred with sterile loop into fresh microbiological medium and incubated with shaking (100 rpm) at 37 °C until they reached logarithmic phase of growth. Cell densities for all assays were adjusted through spectrophotometric measurements (Multiskan GO Microplate Spectrophotometer, Thermo Fisher Scientific, Finland) at 600 and 530 nm for bacteria and fungi, respectively.
# (§2) The MICs were determined by broth microdilution method according to the Clinical and Laboratory Standard Institute guidelines. For this purpose, initial inoculums of bacteria (5 × 10^5 CFU/mL) in MHB and yeasts (2 × 10^3 CFU/mL) in RPMI-1640 with 2% D-glucose were exposed to the ranging concentration of lipopeptides (1–512 μg/mL) and incubated at 37 °C for 18 h and 24 h, respectively. The experiments were conducted on 96-well microtiter polystyrene plates (Kartell, Italy). The growth was assessed visually after incubation and the MIC was assumed as the lowest peptide concentration at which a noticeable growth of microorganisms was inhibited. Benzalkonium chloride (Sigma-Aldrich, Germany) was used as reference compound. All experiments were conducted in triplicate.
# [2] = test system: A. baumannii ATCC BAA 1605; type: cell-based, Acinetobacter baumannii; details: IC50 (HaCaT)/MIC
# Description: as §1, §2
# P. aeruginosa ATCC 9027 = type: cell-based, Pseudomonas aeruginosa; details: IC50 (HaCaT)/MIC
# Description: as §1, §2
# K. aerogenes ATCC 13048 = type: cell-based, Klebsiella aerogenes; details: IC50 (HaCaT)/MIC
# Description: as §1, §2
# E. faecium ATCC 700221 = type: cell-based, Enterococcus faecium
# Description: as §1, §2
# S. aureus ATCC 33591 = type: cell-based, Staphylococcus aureus; details: for Selectivity index (SI) S. aureus: IC50 (HaCaT)/MIC
# Description: as §1, §2
# C. glabrata ATCC 15126 = type: cell-based, Candida glabrata; details: SI of qUSCL divided by SI of parent USCL
# Description: as §1, §2
# [3] = SI of qUSCL divided by SI of parent USCL
SMILES,Selectivity index (SI) K. pneumoniae ([1]; HC50/MIC),Selectivity index (SI) K. pneumoniae ([1]; IC50 (HaCaT)/MIC),Selectivity index (SI) A. baumannii [2],Selectivity index (SI) P. aeruginosa (P. aeruginosa ATCC 9027),Selectivity index (SI) K. aerogenes (K. aerogenes ATCC 13048),"quotient SIqUSCLs/SIUSCLs in terms of HC50, E. faecium (E. faecium ATCC 700221; [3])","quotient SIqUSCLs/SIUSCLs in terms of HC50, S. aureus (S. aureus ATCC 33591; [3])",Selectivity index (SI) S. aureus (S. aureus ATCC 33591),Selectivity index (SI) E. faecium (E. faecium ATCC 700221; HC50/MIC),Selectivity index (SI) E. faecium (E. faecium ATCC 700221; IC50 (HaCaT)/MIC),"quotient SIqUSCLs/SIUSCLs in terms of HC50, C. glabrata (C. glabrata ATCC 15126)"
"CCCCCCCCCCCCCC(=O)N[C@@H](CCCCN)C(N)=O [Peptide 1M, C14-K-NH2]",-,"- (due to lack of antimicrobial activity of compound for specific strain with MIC >512 µg/mL, SI tends to zero)","- (due to lack of antimicrobial activity of compound for specific strain with MIC >512 µg/mL, SI tends to zero)","- (due to lack of antimicrobial activity of compound for specific strain with MIC >512 µg/mL, SI tends to zero)","- (due to lack of antimicrobial activity of compound for specific strain with MIC >512 µg/mL, SI tends to zero)",,,,,,
"CCCCCCCCCCCCCC(=O)N[C@@H](CCCC[N+](C)(C)C)C(N)=O [Peptide 1Mq, C14-K(Me3)^+-NH2]",-,"- (due to lack of antimicrobial activity of compound for specific strain with MIC >512 µg/mL, SI tends to zero)",,,,0.1,0.1,,,,
"CCCCCCCCCCCCCCCC(=O)N[C@@H](CCCCN)C(N)=O [Peptide 1P, C16-K-NH2]",-,"- (due to lack of antimicrobial activity of compound for specific strain with MIC >512 µg/mL, SI tends to zero)","- (due to lack of antimicrobial activity of compound for specific strain with MIC >512 µg/mL, SI tends to zero)","- (due to lack of antimicrobial activity of compound for specific strain with MIC >512 µg/mL, SI tends to zero)","- (due to lack of antimicrobial activity of compound for specific strain with MIC >512 µg/mL, SI tends to zero)",,,"- (due to lack of antimicrobial activity of compound for specific strain with MIC >512 µg/mL, SI tends to zero)",,,
"CCCCCCCCCCCCCCCC(=O)N[C@@H](CCCC[N+](C)(C)C)C(N)=O [Peptide 1Pq, C16-K(Me3)^+-NH2]",,,,"- (due to lack of antimicrobial activity of compound for specific strain with MIC >512 µg/mL, SI tends to zero)",,,,,,,
"CCCCCCCCCCCCCCCCCC(=O)N[C@@H](CCCCN)C(N)=O [Peptide 1S, C18-K-NH2]",-,"- (due to lack of antimicrobial activity of compound for specific strain with MIC >512 µg/mL, SI tends to zero)","- (due to lack of antimicrobial activity of compound for specific strain with MIC >512 µg/mL, SI tends to zero)","- (due to lack of antimicrobial activity of compound for specific strain with MIC >512 µg/mL, SI tends to zero)","- (due to lack of antimicrobial activity of compound for specific strain with MIC >512 µg/mL, SI tends to zero)",,,"- (due to lack of antimicrobial activity of compound for specific strain with MIC >512 µg/mL, SI tends to zero)",-,"- (due to lack of antimicrobial activity of compound for specific strain with MIC >512 µg/mL, SI tends to zero)",
"CCCCCCCCCCCCCCCCCC(=O)N[C@@H](CCCC[N+](C)(C)C)C(N)=O [Peptide 1Sq, C18-K(Me3)^+-NH2]",-,"- (due to lack of antimicrobial activity of compound for specific strain with MIC >512 µg/mL, SI tends to zero)","- (due to lack of antimicrobial activity of compound for specific strain with MIC >512 µg/mL, SI tends to zero)","- (due to lack of antimicrobial activity of compound for specific strain with MIC >512 µg/mL, SI tends to zero)","- (due to lack of antimicrobial activity of compound for specific strain with MIC >512 µg/mL, SI tends to zero)",,,,,,
"CCCCCCCCCCCCCC(=O)N[C@@H](CCCCN)C(=O)N[C@@H](CCCCN)C(N)=O [Peptide 2M, C14-KK-NH2]",-,"- (due to lack of antimicrobial activity of compound for specific strain with MIC >512 µg/mL, SI tends to zero)",,,,,,,,,
"CCCCCCCCCCCCCC(=O)N[C@@H](CCCC[N+](C)(C)C)C(=O)N[C@@H](CCCC[N+](C)(C)C)C(N)=O [Peptide 2Mq, C14-K(Me3)^+K(Me3)^+-NH2]",-,"- (due to lack of antimicrobial activity of compound for specific strain with MIC >512 µg/mL, SI tends to zero)","- (due to lack of antimicrobial activity of compound for specific strain with MIC >512 µg/mL, SI tends to zero)","- (due to lack of antimicrobial activity of compound for specific strain with MIC >512 µg/mL, SI tends to zero)","- (due to lack of antimicrobial activity of compound for specific strain with MIC >512 µg/mL, SI tends to zero)",,,,,,0.7
